Assay [1] has as its target HA-SpvB (S. Typhimurium strain SL1344) (UniProt P21454). In words: co-IP; FLAG-tagged AP-1 subunits or CHC cotransfected with or without HA-SpvB in 293T cells; lysates precipitated with beads coated with HA antibody; immunoblot. (In general: A western blot detects proteins with antibodies after separation by electrophoresis.)
Another assay addresses FLAG-tagged CHC (human) (UniProt Q00610). In words: co-IP; GFP-SpvB or GFP-tagged truncation mutants cotransfected with FLAG-tagged AP-1 subunits or CHC in 293T cells; lysates precipitated with beads coated with FLAG antibody; immunoblot.
Assay [2] deals with T1, FLAG-tagged SopD2 (S. Typhimurium strain SL1344) (UniProt Q8ZQC8).
T1 sequence: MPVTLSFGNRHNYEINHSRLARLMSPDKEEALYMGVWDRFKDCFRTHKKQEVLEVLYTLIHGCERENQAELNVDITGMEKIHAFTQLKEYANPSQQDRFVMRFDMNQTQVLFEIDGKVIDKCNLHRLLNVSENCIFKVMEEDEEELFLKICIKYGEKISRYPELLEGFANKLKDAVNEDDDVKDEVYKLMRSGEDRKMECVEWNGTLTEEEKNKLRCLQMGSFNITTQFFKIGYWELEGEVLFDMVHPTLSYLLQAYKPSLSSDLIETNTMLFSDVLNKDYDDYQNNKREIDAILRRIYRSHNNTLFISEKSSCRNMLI
In words: co-IP; 293T cells transfected with FLAG-tagged SpvB, truncation mutants or SopD2; anti-FLAG immunoprecipitates probed with antibodies against endogenous CHC and AP-1γ.

Amino acid sequences for entries named in this document (tags omitted).
UniProt P21454: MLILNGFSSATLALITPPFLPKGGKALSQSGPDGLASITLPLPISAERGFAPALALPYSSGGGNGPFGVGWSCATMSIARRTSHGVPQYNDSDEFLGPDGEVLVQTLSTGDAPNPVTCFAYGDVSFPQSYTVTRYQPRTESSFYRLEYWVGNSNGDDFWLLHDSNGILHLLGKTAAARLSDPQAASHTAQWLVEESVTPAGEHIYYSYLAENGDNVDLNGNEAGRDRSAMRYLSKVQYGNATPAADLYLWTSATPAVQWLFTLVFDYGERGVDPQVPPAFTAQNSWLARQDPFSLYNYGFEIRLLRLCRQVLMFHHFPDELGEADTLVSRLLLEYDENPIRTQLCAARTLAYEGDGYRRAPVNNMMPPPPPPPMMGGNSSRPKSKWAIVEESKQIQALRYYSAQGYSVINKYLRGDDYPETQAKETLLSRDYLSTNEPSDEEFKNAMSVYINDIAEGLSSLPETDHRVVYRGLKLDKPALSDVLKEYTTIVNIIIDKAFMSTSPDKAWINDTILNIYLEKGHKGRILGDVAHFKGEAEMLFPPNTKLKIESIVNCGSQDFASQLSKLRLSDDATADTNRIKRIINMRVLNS
UniProt Q00610: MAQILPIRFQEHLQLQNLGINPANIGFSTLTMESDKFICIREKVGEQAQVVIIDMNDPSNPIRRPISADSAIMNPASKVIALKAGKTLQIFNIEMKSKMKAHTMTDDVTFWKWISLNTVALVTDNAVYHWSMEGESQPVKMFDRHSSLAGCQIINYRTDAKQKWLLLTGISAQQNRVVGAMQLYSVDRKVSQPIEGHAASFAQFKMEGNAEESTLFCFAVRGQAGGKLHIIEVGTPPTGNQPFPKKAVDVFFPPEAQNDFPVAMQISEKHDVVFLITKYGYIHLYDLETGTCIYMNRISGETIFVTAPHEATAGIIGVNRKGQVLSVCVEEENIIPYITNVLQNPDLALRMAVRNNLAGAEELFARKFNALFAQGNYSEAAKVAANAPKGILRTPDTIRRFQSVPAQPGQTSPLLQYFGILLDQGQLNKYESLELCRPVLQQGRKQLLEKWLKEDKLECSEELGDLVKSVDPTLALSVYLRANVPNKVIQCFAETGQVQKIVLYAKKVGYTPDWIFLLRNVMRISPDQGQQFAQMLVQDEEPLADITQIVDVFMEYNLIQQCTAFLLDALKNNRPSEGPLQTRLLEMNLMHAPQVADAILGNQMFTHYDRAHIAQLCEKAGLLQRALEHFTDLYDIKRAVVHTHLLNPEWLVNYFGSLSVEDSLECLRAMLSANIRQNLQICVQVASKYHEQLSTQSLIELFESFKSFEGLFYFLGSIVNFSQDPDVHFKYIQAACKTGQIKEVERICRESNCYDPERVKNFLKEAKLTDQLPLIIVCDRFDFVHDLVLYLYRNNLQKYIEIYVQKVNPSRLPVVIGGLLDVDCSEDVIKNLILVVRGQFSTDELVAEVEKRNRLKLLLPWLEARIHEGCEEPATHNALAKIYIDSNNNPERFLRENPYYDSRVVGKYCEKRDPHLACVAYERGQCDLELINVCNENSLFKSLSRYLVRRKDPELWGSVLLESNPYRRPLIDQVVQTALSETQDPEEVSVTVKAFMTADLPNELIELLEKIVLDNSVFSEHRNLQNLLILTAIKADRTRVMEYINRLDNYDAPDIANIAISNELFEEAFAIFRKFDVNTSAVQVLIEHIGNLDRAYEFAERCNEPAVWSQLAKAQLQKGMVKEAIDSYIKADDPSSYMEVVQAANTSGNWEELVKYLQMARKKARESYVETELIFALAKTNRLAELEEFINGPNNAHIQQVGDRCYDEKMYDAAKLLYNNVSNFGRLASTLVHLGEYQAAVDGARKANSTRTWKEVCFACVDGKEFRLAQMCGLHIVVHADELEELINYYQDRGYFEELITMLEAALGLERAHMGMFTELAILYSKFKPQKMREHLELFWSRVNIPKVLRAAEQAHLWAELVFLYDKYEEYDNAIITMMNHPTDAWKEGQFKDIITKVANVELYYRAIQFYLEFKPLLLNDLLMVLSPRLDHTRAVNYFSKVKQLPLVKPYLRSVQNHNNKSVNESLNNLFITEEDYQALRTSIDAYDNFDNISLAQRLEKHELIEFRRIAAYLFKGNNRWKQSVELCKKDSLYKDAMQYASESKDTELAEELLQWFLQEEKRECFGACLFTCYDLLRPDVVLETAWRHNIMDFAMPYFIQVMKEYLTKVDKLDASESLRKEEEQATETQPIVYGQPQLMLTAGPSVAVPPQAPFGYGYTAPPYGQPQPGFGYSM

No constants are given. Whether binding was seen depends on the method and setting. In cells and extracts the contact can be indirect. Some results given as binding are weak or reduced against the parent protein; the word gives no strength. For part of these data: Sequences can lack the tags named with a protein.

Turning to “FLAG-tagged CHC (from UniProt Q00610 1-1675)”, the binding entry in assay [1] is on record as “binds”.

For the substance GFP-SpvB (from UniProt P21454 1-591), the binding result with FLAG-tagged CHC (human) is on record as “binds”.

On to “clathrin heavy chain (endogenous) (from UniProt Q00610 1-1675)”, for which the binding result in assay [2] is listed as “no binding”.

The values above are taken from publication PMC10696399.
